Laboratory results from patent publication US20130317087A1 (UNIVERSITY OF ROCHESTER, published 2013).
Results are given in words; binding and its absence hold for the method and conditions named. For some assays here: Binding seen in cells or lysates may run through a third protein. Some results given as binding are weak or reduced against the parent protein; the word gives no strength. For some assays here: Sequences can lack the tags named with a protein. Each block holds one molecule with its values, some of them ahead of it.

Legend:
[1] = target: hSTAU1 SSM-‘RBD’5(E424H, D427V) (human) (UniProt O95793); experiment: gel-filtration chromatography
cellular hUPF1 [2] = target: T1, cellular hUPF1 (human, UniProt Q92900-2 1-1118, limits assumed); experiment: anti-HA co-IP from HEK293T lysates
T1 construct: Endogenous protein detected by western blotting
T1 sequence (looked up): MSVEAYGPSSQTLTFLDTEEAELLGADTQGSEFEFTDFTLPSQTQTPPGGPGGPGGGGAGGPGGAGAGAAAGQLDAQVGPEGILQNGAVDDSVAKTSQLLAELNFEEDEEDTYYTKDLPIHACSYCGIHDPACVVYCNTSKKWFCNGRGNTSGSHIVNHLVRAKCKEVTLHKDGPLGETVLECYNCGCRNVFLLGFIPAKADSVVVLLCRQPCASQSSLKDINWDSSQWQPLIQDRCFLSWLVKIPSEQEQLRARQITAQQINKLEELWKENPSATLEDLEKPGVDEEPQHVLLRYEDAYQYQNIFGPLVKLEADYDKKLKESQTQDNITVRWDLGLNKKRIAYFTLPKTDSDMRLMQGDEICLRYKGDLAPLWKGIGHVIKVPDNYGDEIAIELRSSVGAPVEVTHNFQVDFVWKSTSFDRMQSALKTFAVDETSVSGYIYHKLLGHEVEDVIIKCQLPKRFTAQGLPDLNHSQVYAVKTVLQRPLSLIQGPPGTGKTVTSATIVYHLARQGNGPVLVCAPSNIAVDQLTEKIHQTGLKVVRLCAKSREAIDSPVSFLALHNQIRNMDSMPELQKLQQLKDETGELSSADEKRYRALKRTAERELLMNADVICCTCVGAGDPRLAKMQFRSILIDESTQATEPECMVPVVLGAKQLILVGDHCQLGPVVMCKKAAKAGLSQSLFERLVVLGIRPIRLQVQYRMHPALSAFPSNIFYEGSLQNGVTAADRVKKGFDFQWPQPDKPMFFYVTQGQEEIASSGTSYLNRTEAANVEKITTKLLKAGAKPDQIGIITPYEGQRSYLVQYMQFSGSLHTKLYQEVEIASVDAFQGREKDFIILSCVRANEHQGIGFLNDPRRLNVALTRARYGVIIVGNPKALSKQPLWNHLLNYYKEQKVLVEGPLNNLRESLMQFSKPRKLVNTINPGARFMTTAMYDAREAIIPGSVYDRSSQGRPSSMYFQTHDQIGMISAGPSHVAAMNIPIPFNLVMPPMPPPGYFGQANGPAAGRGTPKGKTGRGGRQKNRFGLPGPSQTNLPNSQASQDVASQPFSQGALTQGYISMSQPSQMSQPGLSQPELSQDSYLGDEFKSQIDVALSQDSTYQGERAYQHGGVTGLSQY

cellular hUPF1 [3] = target: T1, cellular hUPF1; experiment: anti-FLAG co-IP from HEK293T lysates with RNase A
[4] = target: T2, cellular hSTAU2 isoforms (human) (UniProt Q9NUL3); experiment: anti-FLAG co-IP from HEK293T lysates with RNase A
T2 sequence (looked up): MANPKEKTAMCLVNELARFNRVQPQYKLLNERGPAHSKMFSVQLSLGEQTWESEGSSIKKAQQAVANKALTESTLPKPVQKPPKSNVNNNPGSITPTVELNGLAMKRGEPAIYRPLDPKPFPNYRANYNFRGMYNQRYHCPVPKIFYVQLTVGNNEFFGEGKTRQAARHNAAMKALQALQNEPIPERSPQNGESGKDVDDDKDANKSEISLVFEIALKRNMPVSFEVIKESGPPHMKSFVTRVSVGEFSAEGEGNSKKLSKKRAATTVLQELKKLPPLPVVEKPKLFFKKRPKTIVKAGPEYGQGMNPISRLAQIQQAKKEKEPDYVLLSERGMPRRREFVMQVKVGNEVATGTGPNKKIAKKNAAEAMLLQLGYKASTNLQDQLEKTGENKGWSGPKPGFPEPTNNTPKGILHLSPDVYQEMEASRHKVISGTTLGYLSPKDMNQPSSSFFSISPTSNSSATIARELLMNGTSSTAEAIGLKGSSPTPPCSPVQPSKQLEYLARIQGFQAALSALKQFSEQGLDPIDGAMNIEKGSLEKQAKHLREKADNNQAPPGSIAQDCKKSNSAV

[5] = target: endogenous hSTAU1 isoforms (human) (UniProt O95793); experiment: anti-GFP co-IP from HEK293T lysates with RNase A, western blotting
mRFP-SSM-‘RBD’5 (human) = target: T3, mRFP-SSM-‘RBD’5 (human); experiment: as above
T3 sequence (chain, by the resolver, N-terminal mRFP fusion is not carried in the letters.): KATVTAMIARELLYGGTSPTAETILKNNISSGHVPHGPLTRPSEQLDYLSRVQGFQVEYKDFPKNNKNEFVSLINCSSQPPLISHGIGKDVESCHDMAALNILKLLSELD

mRFP-‘RBD’5 = target: T4, mRFP-‘RBD’5 (human, UniProt O95793-2 407-476); experiment: as above
T4 construct: domain: ‘RBD’5; also called monomeric red fluorescence protein-‘RBD’5; product of pmRFP-hSTAU1-‘RBD’5; not shown: N-terminal mRFP (monomeric DsRed derived from pDsRed-Express-C1) with vector linker
T4 sequence (looked up): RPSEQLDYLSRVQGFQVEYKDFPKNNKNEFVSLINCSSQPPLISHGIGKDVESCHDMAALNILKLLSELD

[6] = target: hSTAU1 SSM-‘RBD’5 (hSTAU1^55 amino acids 367-476, GST tag removed) (human); experiment: X-ray crystal structure of SSM-‘RBD’5
[7] = target: hSTAU1 SSM-‘RBD’5 (hSTAU1^55 amino acids 367-476, GST tag removed) (human); experiment: gel filtration of the E. coli-made protein
[8] = target: hSTAU1 SSM-‘RBD’5 (hSTAU1^55 amino acids 367-476, GST tag removed) (human); experiment: analytical ultracentrifugation (figure legend)
[9] = target: hSTAU1 SSM-‘RBD’5 (hSTAU1^55 amino acids 367-476, GST tag removed) (human); experiment: sedimentation velocity analytical ultracentrifugation (self-association, monomer-dimer equilibrium)

Molecule: hSTAU1 SSM-‘RBD’5(E424H, D427V) (from UniProt O95793 367-476)
binding [1]: binds

B1: hSTAU1^55(R)-FLAG (other, human, UniProt O95793-2 1-496, looked up, not shown: small tags and cut ends)
chain: MKLGKKPMYKPVDPYSRMQSTYNYNMRGGAYPPRYFYPFPVPPLLYQVELSVGGQQFNGKGKTRQAAKHDAAAKALRILQNEPLPERLEVNGRESEEENLNKSEISQVFEIALKRNLPVNFEVARESGPPHMKNFVTKVSVGEFVGEGEGKSKKISKKNAAIAVLEELKKLPPLPAVERVKPRIKKKTKPIVKPQTSPEYGQGINPISRLAQIQQAKKEKEPEYTLLTERGLPRRREFVMQVKVGNHTAEGTGTNKKVAKRNAAENMLEILGFKVPQAQPTKPALKSEEKTPIKKPGDGRKVTFFEPGSGDENGTSNKEDEFKMPYLSHQQLPAGILPMVPEVAQAVGVSQGHHTKDFTRAAPNPAKATVTAMIARELLYGGTSPTAETILKNNISSGHVPHGPLTRPSEQLDYLSRVQGFQVEYKDFPKNNKNEFVSLINCSSQPPLISHGIGKDVESCHDMAALNILKLLSELDQQSTEMPRTGNGPMSVCGRC
notes: Expressed in HEK293T cells at the level of cellular hSTAU1; also called product of pcI-neo-hSTAU1^55(R)-FLAG
binding (cellular hUPF1 [3]): binds
binding [4]: binds

B4: hSTAU1^55(R)Δ(C-Term)-FLAG (other, human, UniProt O95793-2 1-422, looked up, not shown: small tags and cut ends)
chain: MKLGKKPMYKPVDPYSRMQSTYNYNMRGGAYPPRYFYPFPVPPLLYQVELSVGGQQFNGKGKTRQAAKHDAAAKALRILQNEPLPERLEVNGRESEEENLNKSEISQVFEIALKRNLPVNFEVARESGPPHMKNFVTKVSVGEFVGEGEGKSKKISKKNAAIAVLEELKKLPPLPAVERVKPRIKKKTKPIVKPQTSPEYGQGINPISRLAQIQQAKKEKEPEYTLLTERGLPRRREFVMQVKVGNHTAEGTGTNKKVAKRNAAENMLEILGFKVPQAQPTKPALKSEEKTPIKKPGDGRKVTFFEPGSGDENGTSNKEDEFKMPYLSHQQLPAGILPMVPEVAQAVGVSQGHHTKDFTRAAPNPAKATVTAMIARELLYGGTSPTAETILKNNISSGHVPHGPLTRPSEQLDYLSRVQGFQ
notes: domain: lacks all amino acids C-terminal to ‘RBD’5 α1; End at residue 422 is read from the primer; also called product of pcI-neo-hSTAU1^55(R)Δ(C-Term)-FLAG
binding (cellular hUPF1 [3]): binds
binding [4]: binds

B5: hSTAU1 SSM-‘RBD’5 (hSTAU1^55 amino acids 367-476, GST tag removed) (other)
chain: GPLGSKATVTAMIARELLYGGTSPTAETILKNNISSGHVPHGPLTRPSEQLDYLSRVQGFQVEYKDFPKNNKNEFVSLINCSSQPPLISHGIGKDVESCHDMAALNILKLLSELD
notes: Made in E. coli as a GST fusion from pGEX-6p-1, GST cleaved off; In monomer-dimer equilibrium; also called SSM-‘RBD’5(WT); hSTAU1^55(367-476)
binding [6]: binds
binding [7]: binds
binding [8]: binds
binding [9]: binds

Continued, values first:

binding (cellular hUPF1 [2]): binds
Molecule: hSTAU1^55-HA3 (from UniProt O95793 1-496)

binding [5]: binds
binding (mRFP-SSM-‘RBD’5 (human)): binds
B2: EGFP-‘RBD’5 (other, human, UniProt O95793-2 407-476, looked up)
chain: RPSEQLDYLSRVQGFQVEYKDFPKNNKNEFVSLINCSSQPPLISHGIGKDVESCHDMAALNILKLLSELD
notes: domain: ‘RBD’5; also called monomeric enhanced green fluorescence protein-‘RBD’5; product of pEGFP-hSTAU1-‘RBD’5; not shown: N-terminal monomeric EGFP from pEGFP-C3 with vector linker

binding [5]: binds
binding (mRFP-‘RBD’5): binds
B3: EGFP-SSM-‘RBD’5 (other, human, UniProt O95793-2 367-476, looked up)
chain: KATVTAMIARELLYGGTSPTAETILKNNISSGHVPHGPLTRPSEQLDYLSRVQGFQVEYKDFPKNNKNEFVSLINCSSQPPLISHGIGKDVESCHDMAALNILKLLSELD
notes: range 367-476; Expressed in HEK293T cells; tested in lysates with RNase A; also called monomeric enhanced green fluorescence protein-SSM-‘RBD’5; product of pEGFP-hSTAU1-SSM-‘RBD’5; not shown: N-terminal monomeric EGFP from pEGFP-C3 (BD Biosciences Clontech) with vector linker
